Results are given in words; binding and its absence hold for the method and conditions named. Binding calls can cover weak binding; strength is not graded here. Where a sequence is shown, tags or fusion partners need not be part of it.

By UniProt entry, the sequences of proteins in these tests, tags left out. Where a name states a change or a piece, a line headed by the entry shows the natural chain unless it says otherwise.
UniProt P39793: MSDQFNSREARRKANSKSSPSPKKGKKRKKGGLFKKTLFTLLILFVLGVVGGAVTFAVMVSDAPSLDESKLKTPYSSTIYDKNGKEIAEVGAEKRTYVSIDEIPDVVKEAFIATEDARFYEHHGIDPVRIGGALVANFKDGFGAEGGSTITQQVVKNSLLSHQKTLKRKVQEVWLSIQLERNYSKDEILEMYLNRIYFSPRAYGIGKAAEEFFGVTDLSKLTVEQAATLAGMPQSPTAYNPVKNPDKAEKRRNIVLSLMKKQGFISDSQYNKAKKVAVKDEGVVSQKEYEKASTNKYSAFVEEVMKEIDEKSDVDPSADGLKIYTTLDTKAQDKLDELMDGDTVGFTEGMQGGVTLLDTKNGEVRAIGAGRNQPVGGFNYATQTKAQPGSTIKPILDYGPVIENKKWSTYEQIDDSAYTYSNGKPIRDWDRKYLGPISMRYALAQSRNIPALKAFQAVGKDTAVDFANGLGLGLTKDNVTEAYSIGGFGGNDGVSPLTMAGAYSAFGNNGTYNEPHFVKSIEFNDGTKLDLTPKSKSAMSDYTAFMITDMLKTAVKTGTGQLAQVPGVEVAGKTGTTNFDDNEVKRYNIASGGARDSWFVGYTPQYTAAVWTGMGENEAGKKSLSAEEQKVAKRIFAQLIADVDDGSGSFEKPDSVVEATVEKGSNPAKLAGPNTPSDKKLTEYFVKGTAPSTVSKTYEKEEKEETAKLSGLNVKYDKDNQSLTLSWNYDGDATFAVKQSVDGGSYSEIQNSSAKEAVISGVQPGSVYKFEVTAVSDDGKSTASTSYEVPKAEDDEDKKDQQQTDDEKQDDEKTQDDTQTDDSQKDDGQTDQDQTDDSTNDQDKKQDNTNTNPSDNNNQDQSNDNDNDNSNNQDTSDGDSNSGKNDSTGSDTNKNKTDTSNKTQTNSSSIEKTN

The assay has as its target T1, hexahistidine tagged BsMltG (His-BsMltG) (Bacillus subtilis) (UniProt O34758).
T1 sequence: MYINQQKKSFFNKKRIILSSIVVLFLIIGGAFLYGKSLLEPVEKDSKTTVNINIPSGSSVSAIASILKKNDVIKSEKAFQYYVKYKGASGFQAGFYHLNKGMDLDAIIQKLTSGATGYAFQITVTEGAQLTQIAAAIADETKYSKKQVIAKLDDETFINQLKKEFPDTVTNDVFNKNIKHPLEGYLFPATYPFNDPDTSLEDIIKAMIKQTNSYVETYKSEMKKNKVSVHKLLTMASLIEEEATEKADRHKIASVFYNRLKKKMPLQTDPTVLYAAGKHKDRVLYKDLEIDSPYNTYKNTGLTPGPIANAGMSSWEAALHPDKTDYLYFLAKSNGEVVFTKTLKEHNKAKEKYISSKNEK
Briefly: pull-down; proteins 1 uM each in 10 mM Hepes/NaOH, 10 mM MgCl2, 150 mM NaCl, 0.05% Triton X-100, pH 7.5; Ni-NTA beads overnight at 4 C; wash with 500 mM NaCl, 50 mM imidazole; Coomassie-stained SDS-PAGE; His-BsMltG as bait; both purified.

For the substance BsPBP1 (from UniProt P39793) (enzyme), the binding entry is listed as “binds”.

These data come from article PMC8135044, “Lytic transglycosylase MltG cleaves in nascent peptidoglycan and produces short glycan strands” (The Cell Surface, 2021).
